These are literature values, as cited in patent US20160030562A1, “METHODS TO ENHANCE CANCER TREATMENT” (INTERNATIONAL BUSINESS MACHINES CORPORATION, priority 2011, published 2016).

The subject of the data set is plasma cholesterol. The following applies: 80 mg daily; cited from earlier work.

Consider `CC(C)c1c(C(=O)Nc2ccccc2)c(-c2ccccc2)c(-c2ccc(F)cc2)n1CC[C@@H](O)C[C@@H](O)CC(=O)O` [atorvastatin], for which the plasma cholesterol concentrations result was “significantly lowers”.
